Binding data for five substances are collected here from publication PMC12518634, “The noncanonical function of liver-type phosphofructokinase potentiates the efficacy of HDAC inhibitors in cancer” (Signal Transduction and Targeted Therapy, 2025).

Sequences of proteins named here, by UniProt entry; tags and fusion partners are left off.
UniProt Q92769: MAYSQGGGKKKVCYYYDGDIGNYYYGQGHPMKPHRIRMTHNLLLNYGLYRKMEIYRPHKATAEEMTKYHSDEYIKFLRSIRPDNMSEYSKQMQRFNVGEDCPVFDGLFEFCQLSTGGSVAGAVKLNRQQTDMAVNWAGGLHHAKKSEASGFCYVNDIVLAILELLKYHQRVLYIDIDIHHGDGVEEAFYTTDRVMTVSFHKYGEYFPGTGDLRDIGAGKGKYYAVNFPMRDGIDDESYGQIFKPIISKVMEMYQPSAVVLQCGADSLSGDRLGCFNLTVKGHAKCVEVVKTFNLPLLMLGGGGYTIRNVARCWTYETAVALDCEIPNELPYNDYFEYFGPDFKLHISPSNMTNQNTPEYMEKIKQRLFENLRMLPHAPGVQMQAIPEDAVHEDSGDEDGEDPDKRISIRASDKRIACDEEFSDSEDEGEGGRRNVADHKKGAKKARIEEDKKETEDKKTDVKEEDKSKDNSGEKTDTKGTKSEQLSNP
UniProt O15379: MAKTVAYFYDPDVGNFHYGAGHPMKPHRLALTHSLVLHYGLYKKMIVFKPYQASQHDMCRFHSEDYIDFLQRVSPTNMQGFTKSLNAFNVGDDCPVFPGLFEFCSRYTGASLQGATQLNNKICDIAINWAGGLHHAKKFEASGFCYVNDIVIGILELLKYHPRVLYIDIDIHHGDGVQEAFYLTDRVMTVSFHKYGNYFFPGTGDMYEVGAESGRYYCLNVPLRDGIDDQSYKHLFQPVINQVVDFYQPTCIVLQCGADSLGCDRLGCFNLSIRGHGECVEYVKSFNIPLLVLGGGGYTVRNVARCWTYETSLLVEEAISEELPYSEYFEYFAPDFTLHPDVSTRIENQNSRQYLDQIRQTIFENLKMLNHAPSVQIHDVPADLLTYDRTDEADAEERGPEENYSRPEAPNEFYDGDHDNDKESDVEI
UniProt Q13547: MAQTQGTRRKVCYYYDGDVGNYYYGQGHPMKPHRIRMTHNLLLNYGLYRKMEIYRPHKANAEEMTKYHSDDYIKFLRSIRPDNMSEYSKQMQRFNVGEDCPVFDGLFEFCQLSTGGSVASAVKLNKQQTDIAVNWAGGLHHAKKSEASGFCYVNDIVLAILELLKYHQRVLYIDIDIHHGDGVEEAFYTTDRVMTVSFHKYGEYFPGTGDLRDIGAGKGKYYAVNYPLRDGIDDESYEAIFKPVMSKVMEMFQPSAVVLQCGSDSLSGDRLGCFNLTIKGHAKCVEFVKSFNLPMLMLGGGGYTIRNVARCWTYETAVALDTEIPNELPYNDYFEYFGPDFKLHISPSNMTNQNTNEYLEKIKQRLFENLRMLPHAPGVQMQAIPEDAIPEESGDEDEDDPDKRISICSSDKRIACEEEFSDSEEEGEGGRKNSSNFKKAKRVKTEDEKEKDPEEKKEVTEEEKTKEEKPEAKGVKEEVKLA

No constants are given. Whether binding was seen depends on the method and setting. For some assays here: In cells and extracts the contact can be indirect. Some binding calls cover weakened binding; strength is not graded here. For some assays here: Tags and fused reporters may be left off the sequences shown.

Experiment [1] addresses T1, PFKL, endogenous in TFK1 cells (human (endogenous in TFK1)) (UniProt P17858).
T1 sequence: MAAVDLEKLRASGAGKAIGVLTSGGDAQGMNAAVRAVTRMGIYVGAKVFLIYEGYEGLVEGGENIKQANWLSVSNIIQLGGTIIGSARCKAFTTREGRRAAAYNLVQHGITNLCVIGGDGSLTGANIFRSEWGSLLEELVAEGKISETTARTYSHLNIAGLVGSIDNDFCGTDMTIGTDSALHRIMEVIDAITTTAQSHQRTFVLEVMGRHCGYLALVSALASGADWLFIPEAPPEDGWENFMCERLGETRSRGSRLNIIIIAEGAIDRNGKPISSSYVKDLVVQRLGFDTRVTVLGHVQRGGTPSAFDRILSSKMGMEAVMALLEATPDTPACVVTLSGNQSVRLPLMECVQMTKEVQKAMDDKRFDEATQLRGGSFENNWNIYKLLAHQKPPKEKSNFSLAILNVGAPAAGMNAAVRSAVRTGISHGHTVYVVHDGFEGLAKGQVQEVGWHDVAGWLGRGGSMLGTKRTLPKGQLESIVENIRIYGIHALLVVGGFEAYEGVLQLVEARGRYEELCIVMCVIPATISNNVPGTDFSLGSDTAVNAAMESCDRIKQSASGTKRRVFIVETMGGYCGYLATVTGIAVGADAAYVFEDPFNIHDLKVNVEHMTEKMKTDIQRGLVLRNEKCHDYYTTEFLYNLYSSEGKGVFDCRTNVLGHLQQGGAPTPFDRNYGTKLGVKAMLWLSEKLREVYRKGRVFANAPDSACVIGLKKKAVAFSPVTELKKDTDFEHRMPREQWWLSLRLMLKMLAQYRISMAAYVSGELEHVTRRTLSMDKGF
The experiment is described as follows: co-IP; endogenous PFKL and class I HDACs in TFK1 whole-cell lysates and nuclear lysates.

Experiment [2] deals with T2, Flag-tagged PFKL (liver-type phosphofructokinase), expressed in TFK1 cells (human) (UniProt P17858).
T2 sequence: T1 sequence
The experiment is described as follows: co-IP; Flag-tagged PFKL in TFK1 cells, blots for zinc-dependent HDACs; lysis buffer 150 mM NaCl, 25 mM Tris-HCl, 0.5% NP-40; anti-FLAG-M2 magnetic beads.

Experiment [3] has as its target T3, GST-PFKL, recombinant (human) (UniProt P17858).
T3 sequence: T1 sequence
Briefly: pull-down; GST-PFKL on glutathione beads (1 h, 4 °C), His-HDAC protein added (1.5 h, 4 °C), five washes, glutathione elution; Coomassie staining and immunoblot; both purified. A general note: A western blot detects proteins with antibodies after separation by electrophoresis.

“HDAC2, endogenous in TFK1 cells (from UniProt Q92769 1-488) (enzyme)”: the binding result in experiment [1] and in experiment [2] was “binds” in each case. As to “His-HDAC3, recombinant (from UniProt O15379 1-428) (enzyme)”, the binding result in experiment [3] is listed as “binds”. The same measure, in the same setting: with “His-HDAC2, recombinant (from UniProt Q92769 1-488) (enzyme)” the entry was “binds”. On to “HDAC3, endogenous in TFK1 cells (from UniProt O15379 1-428) (enzyme)”, for which the binding result in experiment [1] and in experiment [2] was “binds” throughout. For the substance “HDAC1, endogenous in TFK1 cells (from UniProt Q13547 1-482) (enzyme)”, the binding entry in experiment [1] and in experiment [2] was “binds” throughout.
